Where a name gives a salt, the structure may show the parent alone. Some of the results follow. Part of the spread comes from offsets between plates or batches.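 The cells are HEK293 lines stably expressing B-domain-deleted factor VIII fused to Gaussia luciferase, either wild type or a misfolding-prone missense mutant. Each score is mean luminescence from triplicate wells minus the DMSO mean, divided by the DMSO standard deviation; a score of 2 or more counts as a hit, and low scores may reflect lower secretion or poorer cell viability.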
Columns and labels:
HEK293 WT BDD-FVIII-Gluc = assay: secreted FVIII-Gluc luciferase Z-score vs DMSO control; higher = more FVIII-Gluc secretion; conditions: 5 µM; 24 h
[1] = test system: HEK293 p.N1941S BDD-FVIII-Gluc; assay: as above; conditions: 5 µM; 24 h

Row | SMILES | secreted FVIII-Gluc luciferase Z-score (HEK293 WT BDD-FVIII-Gluc) | secreted FVIII-Gluc luciferase Z-score [1]
1 | CN1CCCCC1CCN1c2ccccc2Sc2ccc([S+](C)[O-])cc21 (stereo not drawn) [Mesoridazine Besylate] | inactive: 0.0491 | inactive: -0.683
2 | CC(=O)N[C@H]1[C@H]([C@H](O)[C@H](O)CO)OC(C(=O)O)=C[C@@H]1NC(=N)N [Zanamivir] | inactive: -0.512 | inactive: 0.622
3 | CC(C(=O)O)c1ccc2c(c1)Cc1cccnc1O2 (stereo not drawn) [Pranoprofen] | inactive: -0.41 | inactive: 0.111
4 | Nc1ccc(S(N)(=O)=O)cc1 [Sulfanilamide] | active: 2.42 | inactive: -0.857
5 | CC1(C)O[C@@H]2[C@@H](CO[C@@]3(COS(N)(=O)=O)OC(C)(C)O[C@@H]23)O1 [Topiramate] | inactive: 1.25 | inactive: 0.413
6 | CNC(=C[N+](=O)[O-])NCCSCc1ccc(CN(C)C)o1 [Ranitidine (Zantac)] | inactive: -2.94 | inactive: 0.313
7 | CC(=O)CCCCn1c(=O)c2c(ncn2C)n(C)c1=O [Pentoxifylline] | inactive: -0.751 | inactive: 0.945
8 | COC1C=COC2(C)Oc3c(C)c(O)c4c(O)c(c5c(c4c3C2=O)=NC2(CCN(CC(C)C)CC2)N=5)NC(=O)C(C)=CC=CC(C)C(O)C(C)C(O)C(C)C(OC(C)=O)C1C (stereo not drawn) [Rifabutin (Mycobutin)] | inactive: -3.71 | inactive: -2.19
9 | CC(C)(C)c1nc(-c2cccc(NS(=O)(=O)c3c(F)cccc3F)c2F)c(-c2ccnc(N)n2)s1 | inactive: -4.76 | inactive: -0.0971
10 | COC(=O)C1=C(C)NC(C)=C(C(=O)OC2CCCN(Cc3ccccc3)C2)C1c1cccc([N+](=O)[O-])c1 (stereo not drawn) [Benidipine hydrochloride] | inactive: -1.13 | inactive: -0.597
11 | C[C@H](CCC(=O)O)[C@H]1CC[C@H]2[C@@H]3[C@H](O)C[C@@H]4C[C@H](O)CC[C@]4(C)[C@H]3CC[C@]12C [Chenodeoxycholic acid] | inactive: -2.27 | inactive: -0.614
12 | COc1ccc(C(=O)CC(=O)c2ccc(C(C)(C)C)cc2)cc1 [Avobenzone (Parsol 1789)] | inactive: 0.00486 | inactive: -0.272
13 | Oc1c(Cl)cc(Cl)c2cccnc12 [Chloroxine] | inactive: 1.79 | inactive: 1.45
14 | CC1=CC(=O)c2ccccc2C1=O [Menadione] | inactive: -2.69 | inactive: -0.884
15 | O=S(=O)(O)Oc1ccc(C(c2ccc(OS(=O)(=O)O)cc2)c2ccccn2)cc1 [Sodium Picosulfate] | inactive: -1.16 | inactive: -0.389
16 | COc1ccc(Cl)cc1C(=O)NCCc1ccc(S(=O)(=O)NC(=O)NC2CCCCC2)cc1 [Glyburide (Diabeta)] | inactive: -2.88 | inactive: -0.748
17 | CCCc1nc(C)c2c(=O)nc(-c3cc(S(=O)(=O)N4CCN(CC)CC4)ccc3OCC)[nH]n12 [Vardenafil (Vivanza)] | inactive: 0.885 | inactive: -6.49
18 | O=c1c(-c2ccc(O)cc2)coc2cc(O)ccc12 [Daidzein] | inactive: -6.06 | inactive: -0.554
19 | CCCCc1nc(Cl)c(CO)n1Cc1ccc(-c2ccccc2-c2nnn[nH]2)cc1 [Losartan potassium] | inactive: -2.9 | inactive: -0.338
20 | Cc1cc(C2CCCCC2)n(O)c(=O)c1 [Ciclopirox (Penlac)] | inactive: 0.413 | inactive: -3.4
21 | COc1cccc2c1C(=O)c1c(O)c3c(c(O)c1C2=O)C[C@@](O)(C(=O)CO)C[C@@H]3O[C@H]1C[C@H](N)[C@@H](O)[C@H](C)O1 [Epirubicin HCl] | inactive: -3.89 | inactive: -11.2
22 | CCC[C@H](NC(=O)[C@@H]1[C@H]2CCC[C@H]2CN1C(=O)[C@@H](NC(=O)[C@@H](NC(=O)c1cnccn1)C1CCCCC1)C(C)(C)C)C(=O)C(=O)NC1CC1 [Telaprevir (VX-950)] | inactive: -3.7 | inactive: -1.12
23 | CCc1cccc2c3c([nH]c12)C(CC)(CC(=O)O)OCC3 (stereo not drawn) [Etodolac (Lodine)] | inactive: -4.59 | inactive: -0.274
24 | CCC(C)C1OC2(CCC1C)CC1CC(CC=C(C)C(OC3CC(OC)C(OC4CC(OC)C(O)C(C)O4)C(C)O3)C(C)C=CC=C3COC4C(O)C(C)=CC(C(=O)O1)C34O)O2 (stereo not drawn) [Ivermectin] | inactive: -2.73 | inactive: -2.79
25 | CC(C)C(=O)Nc1ccc([N+](=O)[O-])c(C(F)(F)F)c1 [Flutamide (Eulexin)] | inactive: -1.23 | inactive: -0.0341

3 compounds picked at random from those above:
Row | SMILES | secreted FVIII-Gluc luciferase Z-score (HEK293 WT BDD-FVIII-Gluc) | secreted FVIII-Gluc luciferase Z-score [1]
22 | CCC[C@H](NC(=O)[C@@H]1[C@H]2CCC[C@H]2CN1C(=O)[C@@H](NC(=O)[C@@H](NC(=O)c1cnccn1)C1CCCCC1)C(C)(C)C)C(=O)C(=O)NC1CC1 [Telaprevir (VX-950)] | inactive: -3.7 | inactive: -1.12
15 | O=S(=O)(O)Oc1ccc(C(c2ccc(OS(=O)(=O)O)cc2)c2ccccn2)cc1 [Sodium Picosulfate] | inactive: -1.16 | inactive: -0.389
9 | CC(C)(C)c1nc(-c2cccc(NS(=O)(=O)c3c(F)cccc3F)c2F)c(-c2ccnc(N)n2)s1 | inactive: -4.76 | inactive: -0.0971

Next entries.

Row | SMILES | secreted FVIII-Gluc luciferase Z-score (HEK293 WT BDD-FVIII-Gluc) | secreted FVIII-Gluc luciferase Z-score [1]
26 | CC[C@H]1OC(=O)[C@H](C)[C@@H](O[C@H]2C[C@@](C)(OC)[C@@H](O)[C@H](C)O2)[C@H](C)[C@@H](O[C@@H]2O[C@H](C)C[C@H](N(C)C)[C@H]2O)[C@](C)(O)C[C@@H](C)C(=O)[C@H](C)[C@@H](O)[C@]1(C)O [Erythromycin (E-Mycin)] | inactive: -2.79 | inactive: -1.05
27 | Cc1ccc(O)c([C@H](CCN(C(C)C)C(C)C)c2ccccc2)c1 [Tolterodine tartrate (Detrol LA)] | inactive: -1.08 | inactive: -1.04
28 | CCOC(=O)[C@H](CCc1ccccc1)N[C@@H](C)C(=O)N1Cc2ccccc2C[C@H]1C(=O)O [Quinapril HCl (Accupril)] | inactive: -0.103 | inactive: 0.175
29 | O=C(Nc1c(Cl)cncc1Cl)c1ccc(OC(F)F)c(OCC2CC2)c1 [Roflumilast (Daxas)] | inactive: 0.819 | inactive: -0.671
30 | NC(=O)c1cnccn1 [Pyrazinamide (Pyrazinoic acid amide)] | inactive: -1.16 | inactive: -0.0652
31 | CCOCC(O)COc1ccc(NC(=O)CC[S+](C)C)cc1 (stereo not drawn) [Suplatast tosylate] | inactive: 1.57 | inactive: 1.69
32 | CCOC(=O)C1=C(COCCN)NC(C)=C(C(=O)OC)C1c1ccccc1Cl (stereo not drawn) [Amlodipine besylate (Norvasc)] | inactive: -2.39 | inactive: -1.2
33 | CCOC(=O)c1ccc(N)cc1 [Benzocaine] | inactive: -2.2 | inactive: -1.23
34 | COc1cccc2c1C(=O)c1c(O)c3c(c(O)c1C2=O)C[C@@](O)(C(=O)CO)C[C@@H]3O[C@H]1C[C@H](N)[C@H](O)[C@H](C)O1 [Doxorubicin (Adriamycin)] | inactive: -3.99 | inactive: -11.6
35 | CC[C@H]1OC(=O)[C@H](C)[C@@H](O[C@H]2C[C@@](C)(OC)[C@@H](O)[C@H](C)O2)[C@H](C)[C@@H](O[C@@H]2O[C@H](C)C[C@H](N(C)C)[C@H]2O)[C@](C)(O)C[C@@H](C)CN(C)[C@H](C)[C@@H](O)[C@]1(C)O [Azithromycin Dihydrate] | inactive: -0.277 | inactive: -0.448
36 | CC(NCCc1ccc(O)cc1)C(O)c1ccc(O)cc1 (stereo not drawn) [Ritodrine hydrochloride (Yutopar)] | inactive: 1.25 | inactive: 0.0169
37 | CN(Cc1cnc2nc(N)nc(N)c2n1)c1ccc(C(=O)N[C@@H](CCC(=O)O)C(=O)O)cc1 [Abitrexate (Methotrexate)] | inactive: -3.6 | inactive: -11
38 | Cc1cc2c(s1)Nc1ccccc1N=C2N1CCN(C)CC1 [Olanzapine (Zyprexa)] | inactive: 0.994 | inactive: -5.78
39 | COc1ccc(-c2ccc3cc(C(=O)O)ccc3c2)cc1C12CC3CC(CC(C3)C1)C2 [Adapalene] | inactive: -3.96 | inactive: -13.3
40 | O=c1oc2cc(O)ccc2s1 [Tioxolone] | inactive: -0.915 | inactive: -0.115
41 | CNC(=O)c1ccc(N2C(=S)N(c3ccc(C#N)c(C(F)(F)F)c3)C(=O)C2(C)C)cc1F [MDV3100 (Enzalutamide)] | inactive: 1.42 | inactive: -0.411
42 | CC[C@H](C)[C@H](N)C1=N[C@H](C(=O)N[C@@H](CC(C)C)C(=O)N[C@H](CCC(=O)O)C(=O)N[C@H](C(=O)N[C@H]2CCCCNC(=O)[C@H](CC(N)=O)NC(=O)[C@@H](CC(=O)O)NC(=O)[C@H](Cc3cnc[nH]3)NC(=O)[C@@H](Cc3ccccc3)NC(=O)[C@H]([C@@H](C)CC)NC(=O)[C@@H](CCCN)NC2=O)[C@@H](C)CC)CS1 [Bacitracin] | inactive: 1.26 | inactive: 0.666
43 | CC1(C)Cc2c(-c3ccccc3)c(-c3ccc(Cl)cc3)c(CC(=O)O)n2C1 [Licofelone] | inactive: 0.114 | inactive: -1.44
44 | CCOc1cc(CC(=O)N[C@@H](CC(C)C)c2ccccc2N2CCCCC2)ccc1C(=O)O [Repaglinide] | inactive: -2.62 | inactive: -0.363
45 | COC(=O)C1=C(C)NC(C)=C(C(=O)OCCN2CCN(C(c3ccccc3)c3ccccc3)CC2)C1c1cccc([N+](=O)[O-])c1 (stereo not drawn) [Manidipine (Manyper)] | inactive: 0.0604 | inactive: -7.07
46 | NC(=O)c1cn(Cc2c(F)cccc2F)nn1 [Rufinamide (Banzel)] | inactive: -0.992 | inactive: -5.14
47 | CC(C)NCC(O)c1ccc(O)c(O)c1 (stereo not drawn) [Isoprenaline hydrochloride] | inactive: 0.792 | inactive: 0.0955
48 | CCn1cc(C(=O)O)c(=O)c2ccc(C)nc21 [Nalidixic acid (NegGram)] | inactive: 0.696 | inactive: -0.704
49 | COc1cc2c(cc1Cc1cccc(Cl)c1F)c(=O)c(C(=O)O)cn2[C@H](CO)C(C)C [Elvitegravir (GS-9137)] | inactive: -2.33 | inactive: -1.08

Source: the supplement of paper PMC12024529
